{"source": "PubChem BioAssay AID504444", "about": "(National Center for Advancing Translational Sciences (NCATS), 2011)", "note": "The campaign covered roughly 360,000 compounds. About 7,500 (2.1%) were called active. This list was built around the results that the source calls inconclusive (neither active nor inactive); the mix of calls is not that of the screen. The call rests on the fitted dose curve; in most records, active means well fitted inhibition curve with a large enough effect; inconclusive means small, poorly fitted or top-dose-only effect, or effect the other way; inactive means flat fitted curve, though single readings scatter. A potency beside an inconclusive call is a rough fit, not a confirmed value. On the % scale 0 is the no-effect control and ±100 the full control effect; potency means the concentration at half of the fitted maximal effect."}
{"experiment": "Nrf2 qHTS screen for inhibitors; further: nearly all actives have a fitted effect of over 60% in size", "conditions": "A549 ARE-Fluc reporter, luciferase luminescence, 18-24 h; activity change, negative = inhibition: at 46 µM (top of the series)", "method_in_brief": "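A549 ARE_Fluc cells (5000/well, 5% FBS OPTI-MEM) pre-incubated 2 h, then treated with compounds 18-24 h at 37C/5% CO2 in concentration-response. CellTiter-Fluor viability read first; BugLite luciferase luminescence after 15 min at room temperature gives Nrf2 activity.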"}
{"smiles": "O=C(Nc1ccn(Cc2ccccc2F)n1)c1ccc(COc2ccc(Br)cc2)cc1", "Potency": "active: 6.51 µM"}
{"smiles": "CCN(CC)c1cc2c(cc1F)c(=O)c(S(=O)(=O)c1ccc(C)cc1)cn2Cc1ccc(F)cc1", "activity change, negative = inhibition": "inactive: 2.35%"}
{"smiles": "CC(C)Cn1c(N)c(C(=O)CSc2nncs2)c(=O)n(C)c1=O", "Potency": "inconclusive: 25.9 µM [falling, single point]"}
{"smiles": "CCCCn1nc(NC(=O)COC)c2cc3cc(OC)ccc3nc21", "Potency": "inconclusive: 20.6 µM [activator, partial curve, poor fit]"}
{"smiles": "O=C(Cn1ncc2ccsc2c1=O)N1CCN(c2ccccc2)CC1", "Potency": "inconclusive: 2.31 µM [falling, partial curve]"}
{"smiles": "O=C(Nc1nnc(-c2ccccc2F)s1)C1CCCO1", "note": "(centres undefined)", "Potency": "inconclusive: 11.6 µM [activator, partial curve]"}
{"smiles": "O=C(COc1ccccc1)Nc1ccc(Cl)cn1", "Potency": "inconclusive: 20.6 µM [activator, single point]"}
{"smiles": "O=C(NCC(c1ccco1)N1CCc2ccccc21)c1ccccc1F", "note": "(centres undefined)", "Potency": "inconclusive: 1.84 µM [activator, partial curve, poor fit]"}
{"smiles": "CC(C)NC(=O)NC(=O)COC(=O)c1c2c(nc3ccccc13)CCC2", "Potency": "inconclusive: 29.1 µM [falling, single point]"}
{"smiles": "CC(C)c1ccc(/C=C/C(=O)N2CCOCC2)cc1", "Potency": "inconclusive: 9.2 µM [activator, partial curve]"}
{"smiles": "O=C(NCc1ccncc1)c1ccc(Oc2ccccc2)cc1", "Potency": "inconclusive: 11.6 µM [falling, partial curve]"}
{"smiles": "COc1ccc2cc3cc(C(=O)Nc4cc(OC)c(OC)c(OC)c4)oc3nc2c1", "Potency": "inconclusive: 2.91 µM [falling, partial curve, poor fit]"}
{"smiles": "CC(=O)c1cccc(S(=O)(=O)N2CCCC(c3nc4c(nnn4Cc4cccc(Cl)c4)c(=O)[nH]3)C2)c1", "note": "(centres undefined)", "Potency": "inconclusive: 29.1 µM [falling, single point]"}
{"smiles": "CN(CCO)c1ncnc2nc[nH]c12", "Potency": "inconclusive: 1.64 µM [falling, partial curve, poor fit]"}
{"smiles": "Cc1ccc(CN2CC(=O)N3[C@H]4c5ccccc5OC[C@@H]4[C@H](c4ccccc4)[C@]3(C)C2=O)cc1", "Potency": "inconclusive: 16.4 µM [falling, single point]"}
{"smiles": "CC1CCC(NC(=S)NCCN(C)C)CC1", "note": "(centres undefined)", "activity change, negative = inhibition": "inactive: 14.2%"}
{"smiles": "COc1ccc(CCN2CC(O)=C(c3nc4ccccc4c(=O)[nH]3)C2=N)cc1OC", "activity change, negative = inhibition": "inactive: -24.3%"}
{"smiles": "N#CC(C(=O)c1ccco1)c1ccccn1", "note": "(centres undefined)", "Potency": "inconclusive: 0.0517 µM [falling, full curve, poor fit]"}
{"smiles": "Cc1cc2n(n1)CCC(=O)N2Cc1ccc(C(=O)Nc2ccc(Br)c(C)c2)cc1", "Potency": "inconclusive: 23.1 µM [falling, single point]"}
{"smiles": "CCCn1c2c(c(O)c(C(=O)NCCCN(CC)CC)c1=O)CCCC2", "Potency": "inconclusive: 18.4 µM [activator, partial curve, poor fit]"}
{"smiles": "Cc1ccc(-n2nc(C(=O)Nc3cccc(C#N)c3)c3c4ccccc4n(C)c3c2=O)cc1", "Potency": "inconclusive: 8.2 µM [activator, partial curve]"}
{"smiles": "CC(C)NS(=O)(=O)c1ccc(OCC(=O)Nc2ccc(F)cc2F)cc1", "activity change, negative = inhibition": "inactive: -26.7%"}
{"smiles": "COc1ccc(C2C3=C(CC(C)(C)CC3=O)Nc3cc4c(cc32)OCO4)cc1", "note": "(centres undefined)", "activity change, negative = inhibition": "inactive: -1.48%"}
{"smiles": "O=C(c1cc2nc(-c3cccs3)cc(C(F)(F)Cl)n2n1)N1CCCc2ccccc21", "activity change, negative = inhibition": "inactive: 0.213%"}
{"smiles": "COc1ccc(Br)c(C(=O)Nc2cccc(S(=O)(=O)N3CCOCC3)c2)c1", "activity change, negative = inhibition": "inactive: -11.3%"}
{"smiles": "CC1=C(C(=O)Nc2cccnc2)C(c2ccc(Cl)cc2)n2nc(SCc3ccccc3)nc2N1", "note": "(centres undefined)", "activity change, negative = inhibition": "inactive: 0.244% [at 9.27 µM]"}
{"smiles": "NS(=O)(=O)c1ccc(NC(=S)NNC(=O)c2cccs2)cc1", "Potency": "inconclusive: 18.4 µM [activator, single point]"}
{"smiles": "Cc1ccc(S(=O)(=O)NC(C)(C)CN2CCC(Cc3ccccc3)CC2)cc1", "activity change, negative = inhibition": "inactive: -24.4%"}
{"smiles": "Cc1ccccc1C(=O)N1CCC(C(=O)Nc2ccc(C(C)C)cc2)CC1", "Potency": "inconclusive: 18.4 µM [falling, single point]"}
{"smiles": "COc1ccc(NC(=O)Nc2cccnc2)cc1", "Potency": "inconclusive: 2.59 µM [activator, full curve]"}
{"smiles": "Cc1ccc(C(=O)Nc2ccccc2-c2ccccc2)cc1S(=O)(=O)Nc1ccccc1", "Potency": "inconclusive: 29.1 µM [falling, single point]"}
{"smiles": "Cc1ccc(CNC(=O)c2cn(C)c3ccc(S(=O)(=O)N4CCOCC4)cc3c2=O)cc1", "Potency": "inconclusive: 13 µM [activator, partial curve]"}
{"smiles": "CC(C)n1c(=O)[nH]c2cc(C(=O)Nc3ccccc3)ccc21", "Potency": "inconclusive: 6.51 µM [activator, single point]"}
{"smiles": "NNC(=O)c1[nH]c2ccc(Cl)cc2c1-c1ccccc1", "activity change, negative = inhibition": "inactive: 8.98%"}
{"smiles": "COc1ccccc1N1CCN(C(=O)c2cc3c(=O)oc4ccc(C)cc4c3s2)CC1", "activity change, negative = inhibition": "inactive: 7.69%"}
{"smiles": "COC(=O)/C=c1/sc2nc3ccccc3n2c1=O", "Potency": "inconclusive: 2.59 µM [activator, full curve, poor fit]"}
{"smiles": "COc1ccc(N/C=C/C(=O)c2ccc(Oc3ncccn3)cc2)cc1", "Potency": "inconclusive: 25.9 µM [falling, single point]"}
{"smiles": "Cc1nnsc1S(=O)c1ccccc1Cl", "note": "(centres undefined)", "Potency": "inconclusive: 7.31 µM [falling, partial curve]"}
{"smiles": "CCOC(=O)c1c(C)c(C(=O)NCc2ccc(Cl)cc2)c(C)n1CC", "activity change, negative = inhibition": "inactive: -5.19%"}
{"smiles": "O=C(Nc1ccc(Cl)cc1)c1ccc(OC2CSC2)cc1", "Potency": "inconclusive: 8.2 µM [activator, partial curve]"}
{"smiles": "CCOC(=O)C1=C(C)NC2=C(C(=O)CC(c3cccs3)C2)C1c1cccs1", "note": "(centres undefined)", "Potency": "inconclusive: 18.4 µM [falling, partial curve, poor fit]"}
{"smiles": "O=C(CO/N=C/c1cccc([N+](=O)[O-])c1)NC1CCCCC1", "activity change, negative = inhibition": "inactive: 3.3%"}
{"smiles": "CCCC(C)NC(C)C(=O)NC1CCCC1", "note": "(centres undefined)", "Potency": "inconclusive: 3.26 µM [activator, single point]"}
{"smiles": "CN(c1cccc(NC(=O)c2ccc(C(C)(C)C)cc2)c1)S(C)(=O)=O", "Potency": "inconclusive: 18.4 µM [activator, single point]"}
{"smiles": "Cn1cc(C(=O)C(=O)NC2CCCCC2)c2ccccc21", "Potency": "inconclusive: 8.2 µM [activator, partial curve]"}
{"smiles": "Cn1c(-c2ccc(S(=O)(=O)N3CCCC3)cc2)csc1=Nc1ccc(Cl)c(Cl)c1", "Potency": "active: 3.26 µM"}
{"smiles": "CN(C)CCCn1c(N)c(C#N)c2nc3ccccc3nc21", "activity change, negative = inhibition": "inactive: -5.14%"}
{"smiles": "COc1ccc(C2CC(=O)c3cnc(NC(=O)c4ccccc4OC)nc3C2)c(OC)c1", "note": "(centres undefined)", "activity change, negative = inhibition": "inactive: 4.85%"}
{"smiles": "Cc1ccc(C(=O)NCCC(=O)N2CCCC2)cc1", "Potency": "inconclusive: 1.84 µM [activator, full curve, poor fit]"}
{"smiles": "Fc1ccc(N2CCN(C(c3cccs3)c3nnnn3CCc3ccccc3)CC2)cc1", "note": "(centres undefined)", "Potency": "inconclusive: 18.4 µM [falling, single point]"}
{"smiles": "O=C(NC1=NCCS1)c1ccc(OCC2CCCO2)cc1", "note": "(centres undefined)", "Potency": "inconclusive: 2.31 µM [activator, partial curve, poor fit]"}
{"smiles": "CC(=O)c1ccc(S(=O)(=O)NCC(=O)N2CCN(C/C=C/c3ccccc3)CC2)cc1", "activity change, negative = inhibition": "inactive: -26.2%"}
{"smiles": "Cc1ccc2c(c1)[C@H]1[C@H](CO2)[C@H](c2ccccc2)[C@]2(C)C(=O)Nc3cc(F)c(F)cc3C(=O)N12", "Potency": "inconclusive: 32.6 µM [falling, partial curve, poor fit]"}
{"smiles": "Nc1c(C(=O)NCc2ccccc2)sc2nc3c(cc12)C(=O)CCC3", "activity change, negative = inhibition": "inactive: 9.66%"}
{"smiles": "CSc1nc(N)nc(SC2C=CCCC2)c1C#N", "note": "(centres undefined)", "Potency": "inconclusive: 25.9 µM [activator, single point]"}
{"smiles": "Cn1ncc(Cl)c1C(=O)NCc1cc(C(C)(C)C)n[nH]1", "Potency": "inconclusive: 29.1 µM [falling, single point]"}
{"smiles": "Cc1ccccc1NC(=O)c1c(NC(=O)C(F)(F)F)sc2c1CCCCC2", "Potency": "active: 2.31 µM"}
{"smiles": "Cc1cc(C)cc(N(CC(=O)NC2CCCCC2)C(=O)c2ccc(C)s2)c1", "Potency": "inconclusive: 29.1 µM [falling, single point]"}
{"smiles": "NC(=O)c1sc2nc(-c3ccco3)ccc2c1N", "Potency": "inconclusive: 3.26 µM [activator, full curve]"}
{"smiles": "CCCc1cc(N2CCOCC2)n2ncc(-c3ccccc3)c2n1", "Potency": "inconclusive: 16.4 µM [activator, partial curve]"}
{"smiles": "CCOC(=O)c1sc(-c2ccc(Br)cc2)cc1N", "Potency": "inconclusive: 25.9 µM [activator, single point]"}
{"smiles": "CN1CCCN(C(=O)C2CCC(C(=O)N3CCCN(C)CC3)CC2)CC1", "note": "(centres undefined)", "activity change, negative = inhibition": "inactive: -8.38%"}
{"smiles": "CC(=O)NNc1ncnc2c1cnn2-c1ccc(C)c(C)c1", "Potency": "inconclusive: 16.4 µM [activator, partial curve]"}
{"smiles": "O=C(/C=C/c1ccccc1)Nc1cccnc1Cl", "Potency": "inconclusive: 8.2 µM [activator, partial curve]"}
{"smiles": "COc1ccc(-c2c3c(nc4sc(C(=O)Nc5cc(C)on5)c(N)c24)CCC3)cc1", "Potency": "inconclusive: 2.91 µM [falling, partial curve, poor fit]"}
{"smiles": "Cc1nnc(SCC(=O)NC23CC4CC(CC(C4)C2)C3)n(N)c1=O", "activity change, negative = inhibition": "inactive: 0%"}
{"smiles": "Cc1cccn2c(/C=N/OCc3ccc(F)cc3)c(-c3ccc(Cl)cc3)nc12", "Potency": "inconclusive: 14.6 µM [activator, single point]"}
{"smiles": "CCn1c2ccccc2c2cc(/C=N/NC(=O)c3ccc(O)cc3)ccc21", "Potency": "inconclusive: 29.1 µM [falling, single point]"}
{"smiles": "Cc1cc(C)c(S(=O)(=O)N2CCN(C3CC(=O)N(c4ccccc4Cl)C3=O)CC2)c(C)c1", "note": "(centres undefined)", "Potency": "inconclusive: 8.2 µM [falling, partial curve]"}
